# System: HaCaT cells
# Assay: Cell viability assay (MTT) for in vitro skin irritation of active ingredients
# Assay type: cell-based, human
# Protocol: HaCaT cells, a human keratinocyte cell line, are used as the in vitro model to test any irritation effect of the active ingredients used in the polymeric solution to form the microdepot delivery system of the present invention. The following is the procedures of an MTT assay for testing any skin irritation effect of the active ingredients used in the polymeric solution of the present invention: • a) 12 mM MTT stock solution is prepared by adding 1 mL of sterile PBS into one 5 mg vial of MTT (Component A) and mixed by sonication until the vial of MTT is dissolved in the PBS; • b) HaCaT cells at 5,000 cells per well are seed into a 96-well plate and incubated at 37° C. in 5% CO2 for 24 to 48 hours until the cells become adherent; • c) Culture medium in each well is removed and replaced with 100 μL of test compound (e.g., active ingredient used in the polymeric solution of the present invention); • d) 10 μL of the MTT stock solution prepared in step (a) is added to each well; a negative control containing 100 μL of culture medium and 10 μL of the MTT stock solution is also included for comparison; • e) Both test samples and negative control prepared in step (d) are incubated at 37° C. for 4 hours; • f) 25 μL of the solution is removed from each well after incubation in step (e) followed by adding 50 μL of DMSO to each well and mix thoroughly by pipette; • g) The mixture in step (f) is incubated at 37° C. for 10 minutes; • h) The mixture in each well after the incubation in step (g) is mixed again before measuring absorbance at 540 nm; • i) The mixture is subject to a spectrophotometer to measure the absorbance at 540 nm.
# The cell viability of HaCaT cells with the treatment of the test compound is calculated based on the following formula:
# [formula] where ^OD(1) is the absorbance of culture medium only; ^OD(2) is the absorbance of the culture medium with the cells; ^OD(3) is the absorbance of the culture medium with the test compound; and ^OD(4) is the absorbance of the culture medium with the cells and test compound.
substance,measurement,setting,value
GHK-Cu,OD560,test compound 0.2%,1.66
same,OD560,test compound 0.5%,1.718
same,OD560,test compound 1%,1.775
same,OD560,test compound 2%,1.629
same,OD560,test compound 5%,1.671
